Laboratory results: PubChem BioAssay AID1159579 (Peter MacCallum Cancer Centre, 2015)
Here is one part, drawn at random, of about 2,000 reagents. 549 of all reagents (27%) count as active. 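Some migration ratios are negative; siRNAs with too few cells are inactive whatever their migration ratio.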 A number with no mark means an inactive call. The numbers tell different reagents against one gene apart. The record does not give: the time to read-out.

Assay: 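Retest candidate lymphatic endothelial migration regulators using several independent siRNAs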 (follow-up of hits)
Cells: human dermal lymphatic endothelial cells
Reagent: single siRNA against human genes, 25 nM
Measured: 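High content images of wound closure area and cell nuclei counts, each the average of two wells, expressed against mock transfection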
Scale: migration relative to mock: higher = more migration into the scratch; mean nuclei count: higher = more cells remaining
Hit rule: 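Called active when the migration ratio is 0.6 or lower (impaired) or 1.3 or higher (accelerated), but inactive whenever the mean nuclei count falls under 3300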
Meaning of the calls: active = migration changed (impaired or accelerated); inactive = no migration change, or too few cells

PPP1R35 #1
- migration relative to mock: 1.2
- migration and cell number class: no change in migration or cell number
- mean nuclei count: 5975

PPP1R35 #2
- migration relative to mock: 1.04
- migration and cell number class: no change in migration or cell number
- mean nuclei count: 4286

PPP1R35 #3
- migration relative to mock: 0.7
- migration and cell number class: no change in migration or cell number
- mean nuclei count: 4909

PPP1R35 #4
- migration relative to mock: 0.99
- migration and cell number class: no change in migration or cell number
- mean nuclei count: 5599

PIK3AP1 #1
- migration relative to mock: 0.62
- migration and cell number class: no change in migration or cell number
- mean nuclei count: 5250

PIK3AP1 #2
- migration relative to mock: -0.03 (active)
- migration and cell number class: migration reduced
- mean nuclei count: 3951

PIK3AP1 #3
- migration relative to mock: 0.55 (active)
- migration and cell number class: migration reduced
- mean nuclei count: 6744

PIK3AP1 #4
- migration relative to mock: 0.92
- migration and cell number class: no change in migration or cell number
- mean nuclei count: 6347

OTOS #1
- migration relative to mock: 1
- migration and cell number class: no change in migration or cell number
- mean nuclei count: 5468

OTOS #2
- migration relative to mock: 0 (active)
- migration and cell number class: migration reduced
- mean nuclei count: 3560

OTOS #3
- migration relative to mock: 0.78
- migration and cell number class: no change in migration or cell number
- mean nuclei count: 6110

OTOS #4
- migration relative to mock: 0.93
- migration and cell number class: no change in migration or cell number
- mean nuclei count: 5934

GLB1 #1
- migration relative to mock: 0.91
- migration and cell number class: no change in migration or cell number
- mean nuclei count: 5974

GLB1 #2
- migration relative to mock: 0.4 (active)
- migration and cell number class: migration reduced
- mean nuclei count: 4532

GLB1 #3
- migration relative to mock: 0.84
- migration and cell number class: no change in migration or cell number
- mean nuclei count: 5653

GLB1 #4
- migration relative to mock: 0.6 (active)
- migration and cell number class: migration reduced
- mean nuclei count: 5961

SUSD4 #1
- migration relative to mock: 0.73
- migration and cell number class: no change in migration or cell number
- mean nuclei count: 5920

SUSD4 #2
- migration relative to mock: 0.87
- migration and cell number class: no change in migration or cell number
- mean nuclei count: 5635

SUSD4 #3
- migration relative to mock: 1.33 (active)
- migration and cell number class: migration increased
- mean nuclei count: 5380

SUSD4 #4
- migration relative to mock: 0.82
- migration and cell number class: no change in migration or cell number
- mean nuclei count: 3866

Entries listed so far whose gene name starts with S or s (4):
SUSD4 #1
- migration relative to mock: 0.73
- migration and cell number class: no change in migration or cell number
- mean nuclei count: 5920

SUSD4 #2
- migration relative to mock: 0.87
- migration and cell number class: no change in migration or cell number
- mean nuclei count: 5635

SUSD4 #3
- migration relative to mock: 1.33 (active)
- migration and cell number class: migration increased
- mean nuclei count: 5380

SUSD4 #4
- migration relative to mock: 0.82
- migration and cell number class: no change in migration or cell number
- mean nuclei count: 3866

More entries follow:
SLFN12 #1
- migration relative to mock: 0.54 (active)
- migration and cell number class: migration reduced
- mean nuclei count: 6484

SLFN12 #2
- migration relative to mock: 0.66
- migration and cell number class: no change in migration or cell number
- mean nuclei count: 5564

SLFN12 #3
- migration relative to mock: 0.84
- migration and cell number class: no change in migration or cell number
- mean nuclei count: 6361

SLFN12 #4
- migration relative to mock: 0.63
- migration and cell number class: no change in migration or cell number
- mean nuclei count: 5334

FAM117B #1
- migration relative to mock: 1.04
- migration and cell number class: no change in migration or cell number
- mean nuclei count: 6036

FAM117B #2
- migration relative to mock: 1.07
- migration and cell number class: no change in migration or cell number
- mean nuclei count: 5788

FAM117B #3
- migration relative to mock: 0.64
- migration and cell number class: no change in migration or cell number
- mean nuclei count: 3717

FAM117B #4
- migration relative to mock: 1.07
- migration and cell number class: no change in migration or cell number
- mean nuclei count: 6554

ANAPC7 #1
- migration relative to mock: 0.68
- migration and cell number class: no change in migration or cell number
- mean nuclei count: 4795

ANAPC7 #2
- migration relative to mock: 0.88
- migration and cell number class: no change in migration or cell number
- mean nuclei count: 5430

ANAPC7 #3
- migration relative to mock: 0.62
- migration and cell number class: no change in migration or cell number
- mean nuclei count: 5935

ANAPC7 #4
- migration relative to mock: 0.23 (active)
- migration and cell number class: migration reduced
- mean nuclei count: 4366

APOE #1
- migration relative to mock: 0.86
- migration and cell number class: no change in migration or cell number
- mean nuclei count: 6394

APOE #2
- migration relative to mock: 0.81
- migration and cell number class: no change in migration or cell number
- mean nuclei count: 5140

APOE #3
- migration relative to mock: 0.64
- migration and cell number class: no change in migration or cell number
- mean nuclei count: 5610

APOE #4
- migration relative to mock: 0.68
- migration and cell number class: no change in migration or cell number
- mean nuclei count: 3752
